From the supplement of paper PMC10849652
The list shows a part of the results. Residues, ends and D or L forms follow the SMILES beside them. *: point of attachment. Cbz = O=C(OCc1ccccc1)*

Chains of the proteins cited; added tags and fusions are not shown. Lines headed by an entry give the natural chain unless they say otherwise; changes in a name come on top.
UniProt Q96FQ7: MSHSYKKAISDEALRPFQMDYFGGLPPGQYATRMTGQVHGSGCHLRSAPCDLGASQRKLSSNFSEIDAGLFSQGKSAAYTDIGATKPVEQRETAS
UniProt P24043: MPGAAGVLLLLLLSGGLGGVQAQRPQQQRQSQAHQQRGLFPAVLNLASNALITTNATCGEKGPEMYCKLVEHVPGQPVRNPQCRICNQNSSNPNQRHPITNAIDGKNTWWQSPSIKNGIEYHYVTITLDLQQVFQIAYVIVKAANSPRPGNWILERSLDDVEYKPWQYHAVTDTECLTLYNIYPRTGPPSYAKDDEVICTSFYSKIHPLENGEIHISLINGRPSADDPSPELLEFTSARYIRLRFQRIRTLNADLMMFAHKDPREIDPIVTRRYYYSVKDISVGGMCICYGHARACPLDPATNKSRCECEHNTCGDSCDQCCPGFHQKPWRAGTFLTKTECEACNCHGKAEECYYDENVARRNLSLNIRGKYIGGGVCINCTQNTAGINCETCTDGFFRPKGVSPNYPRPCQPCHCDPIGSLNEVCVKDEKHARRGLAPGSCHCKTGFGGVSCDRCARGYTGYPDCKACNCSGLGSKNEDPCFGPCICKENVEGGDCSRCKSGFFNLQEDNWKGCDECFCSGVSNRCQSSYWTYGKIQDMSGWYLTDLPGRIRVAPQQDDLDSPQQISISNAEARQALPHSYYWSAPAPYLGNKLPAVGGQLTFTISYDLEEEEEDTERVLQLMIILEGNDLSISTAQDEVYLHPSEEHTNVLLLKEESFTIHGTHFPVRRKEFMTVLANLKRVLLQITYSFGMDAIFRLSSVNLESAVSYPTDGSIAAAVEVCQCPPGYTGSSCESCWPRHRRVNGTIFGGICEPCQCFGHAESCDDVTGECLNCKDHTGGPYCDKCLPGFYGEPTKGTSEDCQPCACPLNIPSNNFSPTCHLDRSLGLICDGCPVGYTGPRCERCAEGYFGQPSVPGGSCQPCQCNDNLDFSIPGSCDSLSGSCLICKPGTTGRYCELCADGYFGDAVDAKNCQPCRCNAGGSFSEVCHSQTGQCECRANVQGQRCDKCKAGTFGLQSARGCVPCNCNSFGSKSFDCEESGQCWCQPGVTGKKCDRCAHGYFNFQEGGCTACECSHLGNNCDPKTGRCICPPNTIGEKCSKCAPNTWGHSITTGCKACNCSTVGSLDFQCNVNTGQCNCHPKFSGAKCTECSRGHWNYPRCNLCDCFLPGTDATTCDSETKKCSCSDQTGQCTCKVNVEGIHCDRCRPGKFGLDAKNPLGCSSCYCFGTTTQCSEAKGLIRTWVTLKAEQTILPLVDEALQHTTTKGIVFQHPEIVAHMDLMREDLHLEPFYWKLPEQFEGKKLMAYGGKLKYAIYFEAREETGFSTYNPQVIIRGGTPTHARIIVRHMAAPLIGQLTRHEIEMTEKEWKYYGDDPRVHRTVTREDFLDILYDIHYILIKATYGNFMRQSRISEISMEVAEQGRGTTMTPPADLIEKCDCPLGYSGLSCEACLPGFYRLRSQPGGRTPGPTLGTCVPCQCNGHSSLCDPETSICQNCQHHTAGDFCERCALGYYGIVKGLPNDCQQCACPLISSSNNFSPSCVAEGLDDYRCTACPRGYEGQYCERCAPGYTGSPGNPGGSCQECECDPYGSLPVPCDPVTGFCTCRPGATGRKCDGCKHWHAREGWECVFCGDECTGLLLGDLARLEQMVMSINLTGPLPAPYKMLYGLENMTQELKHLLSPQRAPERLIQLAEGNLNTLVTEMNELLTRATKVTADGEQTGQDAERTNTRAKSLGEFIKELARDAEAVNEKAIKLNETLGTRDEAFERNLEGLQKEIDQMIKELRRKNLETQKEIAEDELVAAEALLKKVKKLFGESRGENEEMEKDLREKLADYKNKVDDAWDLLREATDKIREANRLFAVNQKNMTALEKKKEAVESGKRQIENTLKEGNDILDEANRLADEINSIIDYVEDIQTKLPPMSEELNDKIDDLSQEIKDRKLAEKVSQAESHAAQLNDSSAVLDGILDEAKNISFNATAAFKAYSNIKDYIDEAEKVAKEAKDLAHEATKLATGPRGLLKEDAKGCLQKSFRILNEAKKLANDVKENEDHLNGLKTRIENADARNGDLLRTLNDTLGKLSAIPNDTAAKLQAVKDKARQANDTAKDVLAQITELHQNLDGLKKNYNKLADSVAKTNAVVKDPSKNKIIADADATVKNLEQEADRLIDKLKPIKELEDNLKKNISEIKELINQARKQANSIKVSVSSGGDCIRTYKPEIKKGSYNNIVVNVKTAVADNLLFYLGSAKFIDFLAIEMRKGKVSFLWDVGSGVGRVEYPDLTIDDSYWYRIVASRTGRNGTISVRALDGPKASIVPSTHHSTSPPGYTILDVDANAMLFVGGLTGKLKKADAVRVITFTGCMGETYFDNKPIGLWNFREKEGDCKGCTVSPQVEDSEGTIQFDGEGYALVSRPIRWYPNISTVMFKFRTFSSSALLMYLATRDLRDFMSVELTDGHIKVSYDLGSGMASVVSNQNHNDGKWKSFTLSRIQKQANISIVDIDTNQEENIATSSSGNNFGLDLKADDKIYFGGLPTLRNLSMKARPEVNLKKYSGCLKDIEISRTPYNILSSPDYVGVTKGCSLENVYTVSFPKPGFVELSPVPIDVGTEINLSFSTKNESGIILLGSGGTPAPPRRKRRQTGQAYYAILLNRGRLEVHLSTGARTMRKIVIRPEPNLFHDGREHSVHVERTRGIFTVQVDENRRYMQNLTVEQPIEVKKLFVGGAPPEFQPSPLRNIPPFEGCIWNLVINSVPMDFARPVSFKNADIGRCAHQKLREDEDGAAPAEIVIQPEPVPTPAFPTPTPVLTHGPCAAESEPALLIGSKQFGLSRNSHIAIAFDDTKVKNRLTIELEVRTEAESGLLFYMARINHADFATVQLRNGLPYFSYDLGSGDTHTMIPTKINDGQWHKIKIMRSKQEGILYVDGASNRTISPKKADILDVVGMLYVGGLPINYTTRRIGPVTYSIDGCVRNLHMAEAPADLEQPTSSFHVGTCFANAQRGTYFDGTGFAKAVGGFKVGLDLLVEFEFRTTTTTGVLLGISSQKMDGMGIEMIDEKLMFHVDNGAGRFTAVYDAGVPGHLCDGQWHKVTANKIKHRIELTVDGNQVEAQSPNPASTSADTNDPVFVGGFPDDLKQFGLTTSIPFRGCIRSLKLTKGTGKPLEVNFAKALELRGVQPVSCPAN
UniProt Q9GZZ8: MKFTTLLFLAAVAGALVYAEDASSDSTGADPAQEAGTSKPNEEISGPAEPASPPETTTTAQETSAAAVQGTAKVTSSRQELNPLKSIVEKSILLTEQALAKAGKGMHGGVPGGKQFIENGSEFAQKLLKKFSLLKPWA
UniProt Q13571: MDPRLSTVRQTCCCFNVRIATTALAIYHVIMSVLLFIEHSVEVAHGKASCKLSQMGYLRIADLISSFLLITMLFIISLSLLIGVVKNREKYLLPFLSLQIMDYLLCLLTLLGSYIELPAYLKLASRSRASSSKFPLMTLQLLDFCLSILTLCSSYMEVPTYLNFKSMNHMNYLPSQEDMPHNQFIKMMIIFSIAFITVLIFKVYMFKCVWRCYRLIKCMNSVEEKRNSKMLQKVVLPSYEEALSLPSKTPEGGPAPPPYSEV
UniProt P61968: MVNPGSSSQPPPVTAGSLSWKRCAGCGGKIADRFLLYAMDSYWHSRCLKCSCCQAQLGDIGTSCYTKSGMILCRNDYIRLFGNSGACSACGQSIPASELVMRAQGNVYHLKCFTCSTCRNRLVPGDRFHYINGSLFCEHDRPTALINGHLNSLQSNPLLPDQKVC
UniProt Q9H9Z2: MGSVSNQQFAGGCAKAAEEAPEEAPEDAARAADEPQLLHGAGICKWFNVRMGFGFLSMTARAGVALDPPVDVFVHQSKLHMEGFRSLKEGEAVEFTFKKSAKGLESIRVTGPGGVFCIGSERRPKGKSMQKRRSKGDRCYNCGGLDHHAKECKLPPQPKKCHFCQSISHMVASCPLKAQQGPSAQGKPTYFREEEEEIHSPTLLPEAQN
UniProt Q8N3Y3: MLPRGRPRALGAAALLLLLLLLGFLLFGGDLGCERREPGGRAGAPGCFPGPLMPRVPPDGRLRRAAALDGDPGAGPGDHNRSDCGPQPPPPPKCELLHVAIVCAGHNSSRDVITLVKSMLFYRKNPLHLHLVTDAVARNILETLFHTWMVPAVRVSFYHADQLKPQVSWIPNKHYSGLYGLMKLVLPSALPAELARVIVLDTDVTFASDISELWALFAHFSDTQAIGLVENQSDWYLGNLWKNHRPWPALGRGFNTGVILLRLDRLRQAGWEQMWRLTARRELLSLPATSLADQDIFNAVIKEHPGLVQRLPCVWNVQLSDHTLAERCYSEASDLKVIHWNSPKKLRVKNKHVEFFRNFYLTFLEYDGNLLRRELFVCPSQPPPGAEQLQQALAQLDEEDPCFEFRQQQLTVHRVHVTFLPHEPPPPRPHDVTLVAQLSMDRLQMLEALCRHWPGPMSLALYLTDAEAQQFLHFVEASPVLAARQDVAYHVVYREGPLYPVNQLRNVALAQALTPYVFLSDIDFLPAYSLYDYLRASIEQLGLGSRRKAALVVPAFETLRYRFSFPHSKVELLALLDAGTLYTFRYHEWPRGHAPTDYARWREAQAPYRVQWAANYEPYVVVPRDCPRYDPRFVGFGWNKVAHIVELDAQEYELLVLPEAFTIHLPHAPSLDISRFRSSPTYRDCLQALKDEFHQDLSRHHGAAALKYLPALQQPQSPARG
UniProt P55268: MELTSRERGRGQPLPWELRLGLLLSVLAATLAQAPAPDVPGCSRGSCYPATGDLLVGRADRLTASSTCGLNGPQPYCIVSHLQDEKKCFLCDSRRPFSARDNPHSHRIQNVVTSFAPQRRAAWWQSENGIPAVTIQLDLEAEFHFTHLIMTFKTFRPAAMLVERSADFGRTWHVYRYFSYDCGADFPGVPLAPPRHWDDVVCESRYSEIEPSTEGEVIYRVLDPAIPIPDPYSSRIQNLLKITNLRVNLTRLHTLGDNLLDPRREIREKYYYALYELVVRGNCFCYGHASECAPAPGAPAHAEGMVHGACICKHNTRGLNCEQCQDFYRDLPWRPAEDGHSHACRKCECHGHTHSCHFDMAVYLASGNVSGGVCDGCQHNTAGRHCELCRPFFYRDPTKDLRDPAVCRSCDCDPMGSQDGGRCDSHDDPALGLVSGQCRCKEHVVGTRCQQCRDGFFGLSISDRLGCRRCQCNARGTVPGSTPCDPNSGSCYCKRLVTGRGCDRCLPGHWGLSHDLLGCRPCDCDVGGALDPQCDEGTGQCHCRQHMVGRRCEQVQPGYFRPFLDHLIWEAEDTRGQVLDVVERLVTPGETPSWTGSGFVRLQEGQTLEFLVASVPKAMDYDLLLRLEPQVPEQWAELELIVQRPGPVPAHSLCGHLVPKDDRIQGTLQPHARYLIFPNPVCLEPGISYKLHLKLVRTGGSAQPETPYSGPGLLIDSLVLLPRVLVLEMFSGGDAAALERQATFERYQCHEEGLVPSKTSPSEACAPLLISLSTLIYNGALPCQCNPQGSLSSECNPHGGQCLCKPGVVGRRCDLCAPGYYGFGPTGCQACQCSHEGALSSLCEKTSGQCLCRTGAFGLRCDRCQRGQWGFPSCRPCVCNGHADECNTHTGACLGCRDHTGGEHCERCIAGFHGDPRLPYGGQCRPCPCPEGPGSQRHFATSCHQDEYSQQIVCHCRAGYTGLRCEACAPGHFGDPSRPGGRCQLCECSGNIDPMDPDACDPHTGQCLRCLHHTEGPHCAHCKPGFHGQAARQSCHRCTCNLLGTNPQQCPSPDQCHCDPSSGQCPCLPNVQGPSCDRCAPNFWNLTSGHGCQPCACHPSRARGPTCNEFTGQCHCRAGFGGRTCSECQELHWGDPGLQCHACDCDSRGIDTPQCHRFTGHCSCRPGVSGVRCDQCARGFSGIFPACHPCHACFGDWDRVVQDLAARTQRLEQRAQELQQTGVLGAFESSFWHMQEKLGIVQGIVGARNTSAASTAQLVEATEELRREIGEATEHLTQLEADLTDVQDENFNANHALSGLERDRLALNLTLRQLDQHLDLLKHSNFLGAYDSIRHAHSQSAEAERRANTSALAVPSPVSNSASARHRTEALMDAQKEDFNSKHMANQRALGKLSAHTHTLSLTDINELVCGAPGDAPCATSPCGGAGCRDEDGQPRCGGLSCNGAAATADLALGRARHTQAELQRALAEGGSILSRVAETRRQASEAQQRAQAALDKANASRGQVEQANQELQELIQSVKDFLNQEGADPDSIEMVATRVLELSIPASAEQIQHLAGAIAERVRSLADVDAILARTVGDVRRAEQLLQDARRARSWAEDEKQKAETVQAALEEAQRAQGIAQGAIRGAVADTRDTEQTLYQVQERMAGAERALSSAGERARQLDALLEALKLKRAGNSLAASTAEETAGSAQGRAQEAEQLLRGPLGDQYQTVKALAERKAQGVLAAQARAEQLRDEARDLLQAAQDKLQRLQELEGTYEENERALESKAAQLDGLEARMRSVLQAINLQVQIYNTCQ

Columns and labels:
Test in all cases: log2 fold change, soluble protein after heating vs DMSO (PISA); higher = thermal stabilisation; K562 cells, 10 uM, 30 min; active = over 0.2 and 3.5 SD of the protein, either way, in both replicates (recomputed)
[1] = compound: C1CCN(C1)C(=O)NC2=CC=CC(=C2)NC3=NC=C(C(=N3)NCCC4=CN=CN4)Br
In short: (§1)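 K562 cells (2×10^6 cells/mL) were treated with 10 μM compound for 30 min, and aliquots were heated for 3 min over 48°C-58°C. Pooled aliquots were extracted in PBS with 0.5% NP-40 at 4°C, and the supernatant after 21,000xg for 90 min was measured by TMTpro 16plex LC-MS/MS with channel sums equalised. Reported thermal stability, relative to control samples and from duplicates, is a log2 fold change.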

[2] = compound: C1CN(CCC1(CC2=CC=C(C=C2)Cl)N)C3=NC=NC4=C3C=CN4
In short: as §1

[3] = compound: CC1=C(C2=C(C=C1)C(=O)C3=CC=CC=C3N2CCCN)C
In short: as §1

[4] = compound: C1=CC(=C(C=C1Cl)C2=NC3=NC=CN=C3C(=N2)NC4=CC=NC=C4)F
In short: as §1

[5] = compound: CC(C)(O)CC(=O)NCCn1ccc2ncnc(Nc3ccc(Oc4cccc(C(F)(F)F)c4)c(Cl)c3)c21
In short: as §1

[6] = compound: C1=CC=C(C=C1)C2=NC(=C(N2)C3=CC=NC=C3)C4=CC(=C(C=C4)Cl)O
In short: as §1

ralimetinib = compound: CC(C)(C)Cn1c(N)nc2ccc(-c3[nH]c(C(C)(C)C)nc3-c3ccc(F)cc3)nc21 [ralimetinib]
In short: as §1

[7] = compound: CC(C)C[C@@H](C=O)NC(=O)[C@H](CC(C)C)NC(=O)[C@H](CC(C)C)NC(=O)OCc1ccccc1
In short: as §1

[8] = compound: C/C(=N\NC(=O)C1=CC(=CC=C1)S(=O)(=O)N2CCOCC2)/C3=C(C=CC(=C3)Cl)O
In short: as §1

[9] = compound: C1=CC2=C(C=CC(=C2)/C=C\3/C(=O)NC(=NCC4=CC=CS4)S3)N=C1
In short: as §1

[10] = compound: C1=CC2=NC=CN=C2C=C1/C=C/3\C(=O)NC(=O)S3
In short: as §1

[11] = compound: C1=CC=C2C(=C1)C3=NNC4=CC=CC(=C43)C2=O
In short: as §1

IRAK-1-4 Inhibitor I = compound: C1COCCN1CCN2C3=CC=CC=C3N=C2NC(=O)C4=CC(=CC=C4)[N+](=O)[O-] [IRAK-1-4 Inhibitor I]
In short: as §1

ibrutinib = compound: C=CC(=O)N1CCC[C@@H](n2nc(-c3ccc(Oc4ccccc4)cc3)c3c(N)ncnc32)C1 [ibrutinib]
In short: as §1

[12] = compound: CC(=O)c1cnc2ccc(-c3cc(Cl)c(O)c(Cl)c3)nc2c1N[C@H]1CC[C@H](CN(C)C)CC1
In short: as §1

pinometostat = compound: CC(C)N(C[C@H]1O[C@@H](n2cnc3c(N)ncnc32)[C@H](O)[C@@H]1O)[C@H]1C[C@@H](CCc2nc3cc(C(C)(C)C)ccc3[nH]2)C1 [pinometostat]
In short: as §1

[13] = compound: CC1=C(C(CC(=O)N1)C2=CC=C(C=C2)C(F)(F)F)C(=O)NC3=C(C=C4C(=C3)C=NN4)F
In short: as §1

erlotinib = compound: C#Cc1cccc(Nc2ncnc3cc(OCCOC)c(OCCOC)cc23)c1 [erlotinib]
In short: as §1

[14] = compound: C1=CC(=CC=C1C2=NC3=C(N2)C=C(C=C3)C(=O)N)OC4=CC=C(C=C4)Cl
In short: as §1

[15] = compound: CC(C)C1=C2N=C(C=C(N2N=C1)NCC3=CC=CC=C3)NCCCCCCN
In short: as §1

Measured: log2 fold change

LMNA isoform 2 (UniProt P02545)
inactive: [1] -0.022 | [2] 0.146 | [3] -0.128

LCN2 isoform 2 (UniProt P80188)
inactive: [1] -0.078 | [2] -0.015 | [3] 0.157

LIPT2 (UniProt A6NK58)
inactive: [4] -0.004 | [1] -0.055 | [2] 0.048 | [5] 0.065 | [3] 0.033

Copied from the results shown (2 entries):
LMNA isoform 2 (UniProt P02545)
inactive: [1] -0.022 | [2] 0.146 | [3] -0.128

LCN2 isoform 2 (UniProt P80188)
inactive: [1] -0.078 | [2] -0.015 | [3] 0.157

More entries follow:

LARP1B, A0A3B3ISF0
inactive: [6] -0.046 | ralimetinib 0.001 | [7] 0.131

LAS1L (UniProt Q9Y4W2)
inactive: [8] 0.004 | [4] -0.257 | [9] -0.064 | [10] 0.04 | [6] 0.077 | [11] 0.01 | [1] -0.027 | [2] -0.169 | IRAK-1-4 Inhibitor I -0.213 | ibrutinib -0.278 | [12] 0.213 | ralimetinib 0.163 | [5] 0.027 | [7] -0.279 | pinometostat 0.185 | [3] -0.166

LIMK1 (UniProt P53667)
inactive: [4] 0.046 | [10] 0.104 | [1] -0.134 | [2] 0.022 | IRAK-1-4 Inhibitor I 0.13 | ibrutinib 0.169 | [5] -0.13 | pinometostat 0.073 | [3] 0.051

LIPT1 (UniProt Q9Y234)
inactive: [8] -0.227 | [9] 0.004 | [11] -0.151 | [12] 0.06

LRP10 (UniProt Q7Z4F1)
inactive: [8] 0.046 | [4] -0.123 | [9] -0.094 | [10] 0.009 | [6] 0.102 | [11] -0.013 | IRAK-1-4 Inhibitor I -0.194 | ibrutinib 0.048 | [12] -0.061 | ralimetinib -0.115 | [5] -0.032 | [7] 0.389 | pinometostat 0.112 | [13] 0.007

LINC00526 (UniProt Q96FQ7)
inactive: erlotinib -0.066 | [14] 0.151 | [15] 0.002

L1TD1 (UniProt Q5T7N2)
inactive: [8] -0.071 | [9] 0.364 | [11] -0.055 | [1] 0.165 | [2] -0.099 | IRAK-1-4 Inhibitor I 0.108 | [12] -0.223 | pinometostat 0.127 | [3] 0.092

LRP1 (UniProt Q07954)
inactive: [8] -0.468 | [4] -0.073 | [9] 0.096 | [11] 0.076 | [1] 0.002 | [2] 0.082 | [12] 0.08 | [5] -0.079 | [13] 0.271 | [3] 0.058

LAMA2 (UniProt P24043)
inactive: erlotinib 0.429 | [14] -0.187 | [10] 0.108 | ibrutinib -0.003 | [15] 0.393 | [13] -0.023

LEPROTL1 isoform 2 (UniProt O95214)
inactive: [8] 0.079 | [9] 0.027 | [10] 0.342 | [6] 0.066 | [11] -0.023 | [1] 0.045 | [2] -0.022 | IRAK-1-4 Inhibitor I -0.204 | ibrutinib 0.182 | [12] 0.083 | ralimetinib 0.181 | [7] -0.092 | pinometostat -0.165 | [13] 0.149 | [3] 0.106

LOR (UniProt P23490)
inactive: [4] -0.083 | [5] 0.4

LGALS3BP (UniProt Q08380)
inactive: [8] 0.107 | [4] -0.03 | [9] -0.009 | [11] 0.026 | [12] 0.048 | [5] 0.091 | [13] 0.108

LPP (UniProt Q93052)
inactive: [4] 0.071 | [10] -0.058 | IRAK-1-4 Inhibitor I 0.025 | ibrutinib 0.191 | [5] 0.063 | pinometostat -0.33 | [13] -0.145

LBH (UniProt Q53QV2)
inactive: [8] 0.172 | [4] 0.008 | [9] 0.202 | [6] -0.114 | [11] 0.298 | [12] -0.108 | ralimetinib -0.324 | [5] -0.253 | [7] 0.001 | [13] 0.011

LACRT (UniProt Q9GZZ8)
inactive: [8] 0.086 | [4] 0.243 | [9] -0.029 | [10] -0.436 | [6] -0.257 | [11] -0.211 | ibrutinib 0.145 | [12] 0.091 | ralimetinib -0.135 | [5] 0.135 | [7] 0.104 | [13] -0.622

LOX (UniProt P28300)
inactive: erlotinib -0.245 | [14] 0.315 | [10] 0.038 | ibrutinib 0.074 | [15] -0.218

LRMP (UniProt Q12912)
inactive: [6] 0.011 | ralimetinib 0.028 | [7] 0.126

LPCAT4 (UniProt Q643R3)
inactive: [4] -0.224 | IRAK-1-4 Inhibitor I -0.095 | [5] -0.14 | pinometostat 0.147

LDHC (UniProt P07864)
inactive: [4] 0.02 | [10] 0.131 | ibrutinib -0.001 | [5] 0.129 | [13] 0.037

LAPTM5 (UniProt Q13571)
inactive: [8] -0.061 | [9] -0.064 | [10] -0.118 | [6] 0.048 | [11] 0.006 | [1] 0.103 | [2] 0.092 | ibrutinib -0.075 | [12] 0.226 | ralimetinib 0.02 | [7] 0.178 | [3] -0.045

LEG1 (UniProt Q6P5S2)
inactive: [8] 0.135 | [9] -0.398 | [10] -0.088 | [11] -0.118 | ibrutinib -0.043 | [12] 0.019 | [13] -0.052

LGALSL (UniProt Q3ZCW2)
inactive: IRAK-1-4 Inhibitor I 0.332 | pinometostat -0.017

LRP5 (UniProt O75197)
inactive: [4] -0.148 | [1] -0.049 | [2] 0.095 | [5] -0.12 | [13] 0.086 | [3] -0.208

LIN9 isoform 2 (UniProt Q5TKA1)
inactive: [8] -0.09 | [4] -0.007 | [9] 0.065 | [10] -0.066 | [6] -0.13 | [11] -0.042 | [1] 0.046 | [2] 0.306 | IRAK-1-4 Inhibitor I -0.108 | ibrutinib 0.053 | [12] -0.054 | ralimetinib 0.009 | [5] 0.008 | [7] 0.023 | pinometostat -0.034 | [3] -0.214

LANCL3 (UniProt Q6ZV70)
inactive: [8] 0.055 | [4] 0.079 | [9] -0.08 | [10] -0.093 | [11] -0.072 | IRAK-1-4 Inhibitor I -0.017 | ibrutinib -0.097 | [12] -0.018 | [5] -0.068 | pinometostat 0.03 | [13] 0.061

LMO4 (UniProt P61968)
inactive: [8] -0.021 | [9] -0.009 | [10] 0.067 | [6] 0.083 | [11] -0.004 | [1] -0.008 | [2] 0.226 | IRAK-1-4 Inhibitor I 0.071 | ibrutinib 0.099 | [12] -0.065 | ralimetinib 0.155 | [7] -0.043 | pinometostat -0.07 | [3] -0.009

LMLN isoform 3 (UniProt Q96KR4)
inactive: [4] -0.043 | [10] 0.135 | ibrutinib -0.209 | [5] 0.154

LRCH4 (UniProt O75427)
inactive: [4] -0.036 | [6] -0.041 | IRAK-1-4 Inhibitor I -0.069 | ralimetinib -0.011 | [5] 0.083 | [7] 0.126 | pinometostat 0.223

LIN28A (UniProt Q9H9Z2)
inactive: [10] 0.114 | ibrutinib -0.251

LDHD (UniProt Q86WU2)
inactive: erlotinib -0.057 | [14] -0.007 | [15] 0.062

LARGE2 (UniProt Q8N3Y3)
inactive: IRAK-1-4 Inhibitor I -0.17 | pinometostat -0.032

LGALS3 (UniProt P17931)
inactive: [10] -0.058 | [6] -0.263 | ibrutinib -0.043 | ralimetinib -0.097 | [7] 0 | [13] -0.244

LAPTM4B (UniProt Q86VI4)
inactive: erlotinib -0.074 | [14] -0.054 | [10] 0.093 | ibrutinib 0.019 | [15] 0.141

LAMB2 (UniProt P55268)
inactive: [6] 0.066 | [1] 0.202 | [2] -0.263 | ralimetinib 0.073 | [7] 0.303 | [3] 0.13
